Record: PubChem BioAssay AID1259424 (University of Nebraska Medical Center, 2018)
This is one part, drawn at random, of about 14,000 deposited reagents. 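Higher correlation or smaller distance means closer resemblance to KSR1 loss; control wells, including KSR1 knockdowns, recur on many plates.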 Reagent sequences are not shown. Not stated in the record: the time to read-out.

- Screen: 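Find knockdowns that reproduce the expression shifts seen after KSR1 loss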 (primary screen)
- Cells: human HCT116 colon cancer cells
- Reagent: siRNA pool against human genes, 50 nM
- Detection: 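Log2 levels of six mRNAs (branched-DNA multiplex), adjusted by two reference genes and the non-targeting median, then scored against the average KSR1 knockdown pattern as Pearson r and euclidean distance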
- Reading the numbers: mean correlation with KSR1 profile and KSR1 correlation: higher = expression change more like KSR1 knockdown; mean distance from KSR1 profile: higher = expression change less like KSR1 knockdown

gene symbol,mean correlation with KSR1 profile,mean distance from KSR1 profile,"KSR1 correlation, replicate 1","KSR1 correlation, replicate 2","KSR1 correlation, replicate 3"
CEACAM5 (GeneID 1048),-0.219,1.46,-0.414,-0.16,-0.205
SNX4 (GeneID 8723),-0.349,3.72,-0.173,-0.426,-0.428
HSD3B2 (GeneID 3284),0.128,2.28,0.427,-0.0863,0.00227
UBE2Z (GeneID 65264),0.269,3.51,0.44,0.437,0.0128
DNM2 (GeneID 1785),-0.578,4.06,-0.517,-0.722,-0.652
KRTAP4-9 (GeneID 100132386),0.0521,2.56,0.0897,0.0154,-0.0508
RGS11 (GeneID 8786),0.162,2.08,0.273,0.42,0.108
SAMD9 (GeneID 54809),-0.303,2.45,-0.375,-0.336,-0.398
MAPRE1 (GeneID 22919),0.484,1.32,0.454,0.221,0.51
CPN1 (GeneID 1369),0.387,2.48,0.565,0.342,0.239
VPS33B (GeneID 26276),0.204,3.15,0.382,0.249,-0.0155
CUX1 (GeneID 1523),0.000135,1.93,0.0763,0.0243,-0.0306
ZNF286A (GeneID 57335),-0.0321,3.35,-0.19,-0.172,0.0742

The list goes on, starting with the last 2 of the part before.
gene symbol,mean correlation with KSR1 profile,mean distance from KSR1 profile,"KSR1 correlation, replicate 1","KSR1 correlation, replicate 2","KSR1 correlation, replicate 3"
CUX1 (GeneID 1523),0.000135,1.93,0.0763,0.0243,-0.0306
ZNF286A (GeneID 57335),-0.0321,3.35,-0.19,-0.172,0.0742
APLP2 (GeneID 334),0.178,2.95,0.123,0.172,0.0505
AXIN1 (GeneID 8312),0.387,1.05,0.425,0.318,0.403
ZBED3 (GeneID 84327),0.754,1.42,0.799,0.46,0.555
EVC2 (GeneID 132884),-0.521,3.19,-0.459,-0.566,-0.463
EGLN1 (GeneID 54583),-0.386,4.04,-0.494,-0.535,0.00218
EXOSC3 (GeneID 51010),-0.579,2.72,-0.485,-0.258,-0.344
PREPL (GeneID 9581),-0.589,3.11,-0.453,-0.546,-0.568
